Measurements published in patent publication US20160159919A1.
Residue numbers refer to the chain shown, from its start. No constants are given. Whether binding was seen depends on the method and setting. Some results given as binding are weak or reduced against the parent protein; the word gives no strength. Values belong to the binder of their own block, whether it stands above or below them.

How the values were obtained:
[1] = molecular target: T1, EREG (Epiregulin) expressed on cells (SKE lines derived from SK-HEP-1; DLD-1) (human) (UniProt O14944); experiment: immunohistochemical staining of xenograft tissues of SKE cell lines forced to express EREG
T1 sequence: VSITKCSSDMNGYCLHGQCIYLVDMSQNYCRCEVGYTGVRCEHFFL

[2] = molecular target: T1, EREG (Epiregulin) expressed on cells (SKE lines derived from SK-HEP-1; DLD-1) (human); experiment: flow cytometry of the cell lines (upper row) and immunohistochemistry of xenograft sections with the EP27 antibody as primary antibody (lower row, Reference Example 9); the antibody of the flow cytometry is not named separately in the text
[3] = molecular target: Human EREG (Biacore analyte) (human) (UniProt O14944); experiment: SPR (Biacore), FIG. 3
[4] = molecular target: Human EREG (Biacore analyte) (human) (UniProt O14944); experiment: SPR (Biacore T100, Reference Example 24): antibody captured by Protein A, human EREG as analyte; bar = KD of the antibody / KD of chimeric EP27
[5] = molecular target: Human EREG (Biacore analyte) (human) (UniProt O14944); experiment: SPR (Biacore T100, Reference Example 24): antibody captured by Protein A, human EREG as analyte; bar = KD of the antibody / KD of chimeric EP27 (cH-G1/cL-k)
[6] = molecular target: T2, soluble human EREG fragment having a mature EGF domain structure (R&D Systems cat. no. 1195-EP/CF) (human) (UniProt O14944); experiment: competitive ELISA on coated soluble human EREG fragment
T2 sequence: T1 sequence

B2: H111-G1d/LB-k (antibody, human IgG1, kappa, V domains shown)
VH: QDQLVQSGAEVKKPGASVKVSCKASGFNIKDTYIQWVRQAPGQGLEWMGRIDPLRGNTKYREKFEGRVTITADTSTNTAYMELSSLRSEDTAVYYCVRSGTLFDFWGQGTLVTVSS
VL: DIQMTQSPSSLSASVGDRVTITCKASQDIHKYIAWYQQKPGQAPRLLIQYTSTLQPGVPSRFSGSGSGTDYTFTISSLQPEDIATYYCLQYDNLRTFGGGTKVEIKR
binding [3]: binds | binding [4]: binds | binding [5]: binds

B3: H121-G1d/LB-k (antibody, human IgG1, kappa, V domains shown)
VH: B2 VH with K63R
VL: B2 VL
binding [3]: binds | binding [4]: binds | binding [5]: binds

B4: H111-G1d/L48-k (antibody, human IgG1, kappa, V domains shown)
VH: B2 VH
VL: B2 VL with L94R
binding [3]: binds | binding [4]: binds | binding [5]: binds

B5: H116-G1d/LB-k (antibody, human IgG1, kappa, V domains shown)
VH: B2 VH with G56R
VL: B2 VL
binding [3]: binds | binding [4]: binds | binding [5]: binds

B6: H120-G1d/LB-k (antibody, human IgG1, kappa, V domains shown)
VH: B2 VH with Y60R
VL: B2 VL
binding [3]: binds | binding [4]: binds | binding [5]: binds

B8: H117-G1d/LB-k (antibody, human IgG1, kappa, V domains shown)
VH: B2 VH with N57R
VL: B2 VL
binding [3]: binds | binding [4]: binds | binding [5]: binds

B12: H118-G1d/LB-k (antibody, human IgG1, kappa, V domains shown)
VH: B2 VH with T58R
VL: B2 VL
binding [3]: binds | binding [4]: binds | binding [5]: binds

Further lines, results first:

binding [1]: binds | binding [2]: binds
B1: mouse hybridoma-derived EP27 (antibody, V domains shown)
VH: EDQLQQSGAELVKPGASVKLSCTASGFNIKDTYIQWVKLRPEQGLEWIGRIDPLNGNTKYVPKFQGKATITADTSSNTAYLQLSSLTSEDTAVYYCVRSGTLFDFWGQGTTLTVSS
VL: DIQMTQSPSSLSASLGGKVTITCKASQDIHKYIAWYQHKPGKGPRLLIQYTSTLQPGIPSRFSGSGSGRDYSFSISNLEPEDIATYYCLQYDNLRTFGGGTKLEIK

binding [6]: binds
B7: HY-G1d/L20-k (antibody, human IgG1, kappa, V domains shown)
VH: B2 VH with R55N, R61V, E62P, E65Q
VL: B2 VL with K24Q, Q55E

binding [6]: binds
B9: HY-G1d/L23-k (antibody, human IgG1, kappa, V domains shown)
VH: B2 VH with R55N, R61V, E62P, E65Q
VL: B2 VL with P56E

binding [3]: binds | binding [4]: binds | binding [5]: binds
B10: H132-G1d/LB-k (antibody, human IgG1, kappa, V domains shown)
VH: B2 VH with G56R, T101R
VL: B2 VL

binding [3]: binds | binding [4]: binds | binding [5]: binds
B11: H123-G1d/LB-k (antibody, human IgG1, kappa, V domains shown)
VH: B2 VH with G66R
VL: B2 VL
